Source: the supplement of paper PMC10849652
Some of the results follow. Residues, ends and D or L forms follow the SMILES beside them. *: point of attachment. Cbz = O=C(OCc1ccccc1)*

Chains of the proteins cited; added tags and fusions are not shown. Lines headed by an entry give the natural chain unless they say otherwise; changes in a name come on top.
UniProt Q9NT62, whole entry, looked up: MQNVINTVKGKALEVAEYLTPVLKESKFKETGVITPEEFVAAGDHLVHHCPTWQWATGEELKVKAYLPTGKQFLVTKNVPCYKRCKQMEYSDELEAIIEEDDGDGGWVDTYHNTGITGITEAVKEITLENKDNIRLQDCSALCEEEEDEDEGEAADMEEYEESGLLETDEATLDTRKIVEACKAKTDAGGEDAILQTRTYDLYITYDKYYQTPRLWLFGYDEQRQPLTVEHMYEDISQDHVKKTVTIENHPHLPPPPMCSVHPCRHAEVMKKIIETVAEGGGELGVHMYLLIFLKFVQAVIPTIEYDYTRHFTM
UniProt Q9ULH1: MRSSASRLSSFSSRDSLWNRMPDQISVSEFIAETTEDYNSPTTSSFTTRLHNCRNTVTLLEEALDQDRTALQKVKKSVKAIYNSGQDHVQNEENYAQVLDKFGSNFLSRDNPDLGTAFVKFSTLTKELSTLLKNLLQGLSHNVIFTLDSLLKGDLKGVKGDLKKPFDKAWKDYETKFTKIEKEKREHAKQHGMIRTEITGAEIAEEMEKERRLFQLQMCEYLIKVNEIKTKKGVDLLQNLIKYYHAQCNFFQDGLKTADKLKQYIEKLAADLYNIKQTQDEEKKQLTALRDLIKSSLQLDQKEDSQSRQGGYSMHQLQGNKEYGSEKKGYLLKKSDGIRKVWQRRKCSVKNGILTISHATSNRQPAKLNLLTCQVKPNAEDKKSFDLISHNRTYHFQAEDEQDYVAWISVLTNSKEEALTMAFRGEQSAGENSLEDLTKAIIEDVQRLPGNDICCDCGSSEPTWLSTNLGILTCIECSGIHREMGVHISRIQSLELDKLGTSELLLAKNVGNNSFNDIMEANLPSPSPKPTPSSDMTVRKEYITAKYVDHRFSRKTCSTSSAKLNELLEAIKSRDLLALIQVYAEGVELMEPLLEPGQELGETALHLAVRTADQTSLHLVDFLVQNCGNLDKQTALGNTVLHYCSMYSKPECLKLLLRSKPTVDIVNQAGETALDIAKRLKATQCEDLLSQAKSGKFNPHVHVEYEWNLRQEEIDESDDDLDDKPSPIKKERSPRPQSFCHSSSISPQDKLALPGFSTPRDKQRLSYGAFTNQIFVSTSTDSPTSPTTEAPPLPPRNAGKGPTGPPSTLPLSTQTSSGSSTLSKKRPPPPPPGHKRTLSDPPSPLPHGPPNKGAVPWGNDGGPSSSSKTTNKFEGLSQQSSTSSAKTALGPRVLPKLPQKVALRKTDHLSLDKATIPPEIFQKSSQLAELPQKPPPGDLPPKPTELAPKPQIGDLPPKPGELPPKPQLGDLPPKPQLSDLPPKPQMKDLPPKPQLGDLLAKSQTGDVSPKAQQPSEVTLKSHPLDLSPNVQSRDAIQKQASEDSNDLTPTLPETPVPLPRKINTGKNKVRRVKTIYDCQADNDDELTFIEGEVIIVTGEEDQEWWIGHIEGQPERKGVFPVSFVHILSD
UniProt O75787, whole entry, looked up: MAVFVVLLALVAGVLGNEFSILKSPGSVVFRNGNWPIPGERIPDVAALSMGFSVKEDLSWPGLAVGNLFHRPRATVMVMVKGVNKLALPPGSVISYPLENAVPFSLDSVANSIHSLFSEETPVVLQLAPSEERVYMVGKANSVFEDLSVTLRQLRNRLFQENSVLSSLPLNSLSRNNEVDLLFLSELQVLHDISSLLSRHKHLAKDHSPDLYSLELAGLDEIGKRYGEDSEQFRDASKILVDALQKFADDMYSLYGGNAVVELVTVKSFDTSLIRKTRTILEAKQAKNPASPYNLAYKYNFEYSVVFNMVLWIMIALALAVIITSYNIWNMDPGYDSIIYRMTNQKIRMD
UniProt Q7L266: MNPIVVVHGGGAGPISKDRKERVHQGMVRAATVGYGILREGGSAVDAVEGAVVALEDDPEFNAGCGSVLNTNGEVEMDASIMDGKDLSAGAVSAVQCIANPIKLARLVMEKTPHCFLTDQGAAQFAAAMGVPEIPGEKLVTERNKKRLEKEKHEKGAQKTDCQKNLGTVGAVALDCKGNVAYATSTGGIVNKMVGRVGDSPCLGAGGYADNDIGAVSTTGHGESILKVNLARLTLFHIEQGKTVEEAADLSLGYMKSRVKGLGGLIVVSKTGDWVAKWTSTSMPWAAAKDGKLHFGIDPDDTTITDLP
UniProt P98194: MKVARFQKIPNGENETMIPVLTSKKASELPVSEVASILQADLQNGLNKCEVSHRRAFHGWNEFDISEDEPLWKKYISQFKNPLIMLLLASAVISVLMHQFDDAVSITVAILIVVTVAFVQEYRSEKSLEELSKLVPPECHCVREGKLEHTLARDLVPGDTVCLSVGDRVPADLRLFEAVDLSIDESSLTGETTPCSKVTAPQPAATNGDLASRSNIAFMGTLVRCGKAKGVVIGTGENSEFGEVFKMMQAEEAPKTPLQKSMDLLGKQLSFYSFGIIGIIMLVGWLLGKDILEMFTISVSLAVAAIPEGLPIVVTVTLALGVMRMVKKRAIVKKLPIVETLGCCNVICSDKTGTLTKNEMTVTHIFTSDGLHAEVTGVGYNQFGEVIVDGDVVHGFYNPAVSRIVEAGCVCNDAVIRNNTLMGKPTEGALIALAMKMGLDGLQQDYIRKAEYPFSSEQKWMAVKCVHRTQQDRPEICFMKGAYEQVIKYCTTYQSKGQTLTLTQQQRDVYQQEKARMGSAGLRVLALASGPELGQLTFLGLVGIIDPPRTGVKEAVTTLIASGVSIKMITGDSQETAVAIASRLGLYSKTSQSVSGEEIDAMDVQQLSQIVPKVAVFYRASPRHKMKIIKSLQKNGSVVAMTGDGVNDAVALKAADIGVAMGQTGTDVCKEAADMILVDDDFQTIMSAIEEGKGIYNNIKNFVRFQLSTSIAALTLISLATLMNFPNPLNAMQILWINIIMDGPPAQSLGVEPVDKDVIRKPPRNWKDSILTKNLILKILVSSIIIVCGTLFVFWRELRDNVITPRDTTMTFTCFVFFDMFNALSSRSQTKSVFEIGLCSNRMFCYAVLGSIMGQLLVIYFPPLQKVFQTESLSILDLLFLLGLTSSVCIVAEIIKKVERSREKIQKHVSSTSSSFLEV
UniProt Q9UH62: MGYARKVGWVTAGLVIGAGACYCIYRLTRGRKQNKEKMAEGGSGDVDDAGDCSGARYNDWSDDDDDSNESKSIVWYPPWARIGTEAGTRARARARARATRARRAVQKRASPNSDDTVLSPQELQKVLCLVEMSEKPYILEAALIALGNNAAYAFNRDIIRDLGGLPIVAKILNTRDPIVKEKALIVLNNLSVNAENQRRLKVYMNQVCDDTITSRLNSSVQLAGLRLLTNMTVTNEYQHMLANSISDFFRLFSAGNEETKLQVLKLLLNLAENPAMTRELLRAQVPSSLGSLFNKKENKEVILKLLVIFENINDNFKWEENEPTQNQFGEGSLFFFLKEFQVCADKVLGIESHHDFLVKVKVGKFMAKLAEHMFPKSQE
UniProt Q3SXY8: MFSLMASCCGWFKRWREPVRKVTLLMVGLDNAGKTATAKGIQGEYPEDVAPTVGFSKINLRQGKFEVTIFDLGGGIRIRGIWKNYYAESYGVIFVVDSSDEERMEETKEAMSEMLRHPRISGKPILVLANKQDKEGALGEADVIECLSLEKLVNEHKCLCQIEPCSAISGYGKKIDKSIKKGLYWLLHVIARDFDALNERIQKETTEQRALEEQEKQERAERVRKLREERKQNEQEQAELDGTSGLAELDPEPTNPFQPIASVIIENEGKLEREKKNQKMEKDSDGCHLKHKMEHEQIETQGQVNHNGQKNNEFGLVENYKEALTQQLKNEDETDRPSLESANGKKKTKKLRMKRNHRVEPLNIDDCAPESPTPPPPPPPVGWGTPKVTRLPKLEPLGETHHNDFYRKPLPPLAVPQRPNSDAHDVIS
UniProt P30049: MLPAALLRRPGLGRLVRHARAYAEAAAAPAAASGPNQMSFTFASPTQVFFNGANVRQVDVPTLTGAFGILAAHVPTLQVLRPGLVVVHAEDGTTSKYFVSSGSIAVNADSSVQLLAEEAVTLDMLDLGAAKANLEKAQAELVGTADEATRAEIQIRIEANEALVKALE
UniProt Q6DD88: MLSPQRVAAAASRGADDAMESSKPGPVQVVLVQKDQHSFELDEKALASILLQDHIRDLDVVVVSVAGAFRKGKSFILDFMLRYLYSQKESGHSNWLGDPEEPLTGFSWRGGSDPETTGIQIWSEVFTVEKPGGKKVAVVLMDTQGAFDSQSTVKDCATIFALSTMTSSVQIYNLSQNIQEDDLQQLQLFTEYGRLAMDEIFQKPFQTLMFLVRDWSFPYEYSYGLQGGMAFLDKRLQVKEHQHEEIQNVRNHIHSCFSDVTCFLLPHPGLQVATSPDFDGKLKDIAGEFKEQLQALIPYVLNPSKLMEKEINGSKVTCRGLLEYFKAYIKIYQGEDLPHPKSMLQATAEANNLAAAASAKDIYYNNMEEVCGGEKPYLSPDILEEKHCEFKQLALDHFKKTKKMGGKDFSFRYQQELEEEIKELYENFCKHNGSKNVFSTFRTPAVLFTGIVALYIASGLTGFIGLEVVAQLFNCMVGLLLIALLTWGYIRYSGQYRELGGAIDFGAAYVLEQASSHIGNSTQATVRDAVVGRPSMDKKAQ
UniProt Q92747, whole entry, looked up: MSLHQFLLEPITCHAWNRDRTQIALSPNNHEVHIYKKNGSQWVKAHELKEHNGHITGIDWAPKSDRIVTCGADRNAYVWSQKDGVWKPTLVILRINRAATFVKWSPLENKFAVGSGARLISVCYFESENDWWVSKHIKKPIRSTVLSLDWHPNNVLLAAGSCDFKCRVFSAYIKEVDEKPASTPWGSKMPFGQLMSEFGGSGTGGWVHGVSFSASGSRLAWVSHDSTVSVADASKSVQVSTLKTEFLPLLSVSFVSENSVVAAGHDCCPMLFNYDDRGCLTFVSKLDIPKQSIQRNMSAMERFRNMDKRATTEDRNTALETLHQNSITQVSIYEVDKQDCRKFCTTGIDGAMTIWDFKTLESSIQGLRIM
UniProt Q8N5M1: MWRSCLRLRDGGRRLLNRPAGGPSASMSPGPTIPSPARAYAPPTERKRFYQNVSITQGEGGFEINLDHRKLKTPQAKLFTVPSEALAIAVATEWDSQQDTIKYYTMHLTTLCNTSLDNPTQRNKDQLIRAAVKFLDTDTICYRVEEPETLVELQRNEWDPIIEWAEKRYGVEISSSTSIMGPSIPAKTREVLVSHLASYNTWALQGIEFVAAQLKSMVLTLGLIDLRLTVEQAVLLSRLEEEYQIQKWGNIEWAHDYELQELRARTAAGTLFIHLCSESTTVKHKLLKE
UniProt P15848: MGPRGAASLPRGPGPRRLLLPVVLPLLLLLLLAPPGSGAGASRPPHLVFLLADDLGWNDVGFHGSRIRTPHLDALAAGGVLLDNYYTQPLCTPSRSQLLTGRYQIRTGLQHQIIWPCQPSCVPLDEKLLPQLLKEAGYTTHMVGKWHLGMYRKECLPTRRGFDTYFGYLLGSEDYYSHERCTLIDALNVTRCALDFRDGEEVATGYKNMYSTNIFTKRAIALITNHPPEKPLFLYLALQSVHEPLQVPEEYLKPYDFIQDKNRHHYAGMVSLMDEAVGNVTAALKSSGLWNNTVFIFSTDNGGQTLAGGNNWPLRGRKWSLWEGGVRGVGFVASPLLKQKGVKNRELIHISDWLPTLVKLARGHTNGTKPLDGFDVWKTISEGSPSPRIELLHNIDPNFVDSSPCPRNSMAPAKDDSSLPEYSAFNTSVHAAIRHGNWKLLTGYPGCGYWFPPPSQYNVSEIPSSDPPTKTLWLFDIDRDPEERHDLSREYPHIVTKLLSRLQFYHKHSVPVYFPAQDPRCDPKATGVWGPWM

Tests used:
Test in all cases: log2 fold change, soluble protein after heating vs DMSO (PISA); higher = thermal stabilisation; K562 cells, 10 uM, 30 min; active = over 0.2 and 3.5 SD of the protein, either way, in both replicates (recomputed)
[1] = compound: C#Cc1cccc(Nc2ncnc3cc(OCCOC)c(OCCOC)cc23)c1 [erlotinib]
Outline: (§1)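 K562 cells at 2×10^6 cells/mL were exposed to 10 μM compound for 30 min, then aliquots were heated for 3 min across 48°C-58°C, pooled, and extracted in PBS containing 0.5% NP-40 at 4°C. The supernatant after 21,000xg for 90 min was taken as soluble protein and measured by TMTpro 16plex LC-MS/MS with channel sums equalised. Thermal stability is reported relative to control samples, with values from duplicates. Fold changes are given on a log2 scale.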

[2] = compound: C/C(=N\NC(=O)C1=CC(=CC=C1)S(=O)(=O)N2CCOCC2)/C3=C(C=CC(=C3)Cl)O
Outline: as §1

[3] = compound: C1=CC(=C(C=C1Cl)C2=NC3=NC=CN=C3C(=N2)NC4=CC=NC=C4)F
Outline: as §1

[4] = compound: C1=CC(=CC=C1C2=NC3=C(N2)C=C(C=C3)C(=O)N)OC4=CC=C(C=C4)Cl
Outline: as §1

[5] = compound: C1=CC2=C(C=CC(=C2)/C=C\3/C(=O)NC(=NCC4=CC=CS4)S3)N=C1
Outline: as §1

[6] = compound: C1=CC2=NC=CN=C2C=C1/C=C/3\C(=O)NC(=O)S3
Outline: as §1

[7] = compound: C1=CC=C(C=C1)C2=NC(=C(N2)C3=CC=NC=C3)C4=CC(=C(C=C4)Cl)O
Outline: as §1

[8] = compound: C1=CC=C2C(=C1)C3=NNC4=CC=CC(=C43)C2=O
Outline: as §1

[9] = compound: C1CCN(C1)C(=O)NC2=CC=CC(=C2)NC3=NC=C(C(=N3)NCCC4=CN=CN4)Br
Outline: as §1

[10] = compound: C1CN(CCC1(CC2=CC=C(C=C2)Cl)N)C3=NC=NC4=C3C=CN4
Outline: as §1

[11] = compound: C1COCCN1CCN2C3=CC=CC=C3N=C2NC(=O)C4=CC(=CC=C4)[N+](=O)[O-] [IRAK-1-4 Inhibitor I]
Outline: as §1

[12] = compound: C=CC(=O)N1CCC[C@@H](n2nc(-c3ccc(Oc4ccccc4)cc3)c3c(N)ncnc32)C1 [ibrutinib]
Outline: as §1

[13] = compound: CC(=O)c1cnc2ccc(-c3cc(Cl)c(O)c(Cl)c3)nc2c1N[C@H]1CC[C@H](CN(C)C)CC1
Outline: as §1

[14] = compound: CC(C)(C)Cn1c(N)nc2ccc(-c3[nH]c(C(C)(C)C)nc3-c3ccc(F)cc3)nc21 [ralimetinib]
Outline: as §1

[15] = compound: CC(C)(O)CC(=O)NCCn1ccc2ncnc(Nc3ccc(Oc4cccc(C(F)(F)F)c4)c(Cl)c3)c21
Outline: as §1

[16] = compound: CC(C)C1=C2N=C(C=C(N2N=C1)NCC3=CC=CC=C3)NCCCCCCN
Outline: as §1

[17] = compound: CC(C)C[C@@H](C=O)NC(=O)[C@H](CC(C)C)NC(=O)[C@H](CC(C)C)NC(=O)OCc1ccccc1
Outline: as §1

[18] = compound: CC(C)N(C[C@H]1O[C@@H](n2cnc3c(N)ncnc32)[C@H](O)[C@@H]1O)[C@H]1C[C@@H](CCc2nc3cc(C(C)(C)C)ccc3[nH]2)C1 [pinometostat]
Outline: as §1

[19] = compound: CC1=C(C(CC(=O)N1)C2=CC=C(C=C2)C(F)(F)F)C(=O)NC3=C(C=C4C(=C3)C=NN4)F
Outline: as §1

[20] = compound: CC1=C(C2=C(C=C1)C(=O)C3=CC=CC=C3N2CCCN)C
Outline: as §1

Measured: log2 fold change

ATG3 (UniProt Q9NT62)
inactive: [1] 0.012 | [2] 0.025 | [3] 0.003 | [4] -0.007 | [5] 0.011 | [6] 0.013 | [7] 0.005 | [8] -0.016 | [9] 0.033 | [10] 0.01 | [11] 0.057 | [12] -0.006 | [13] -0.009 | [14] -0.035 | [15] -0.017 | [16] 0 | [17] 0.017 | [18] -0.028 | [19] -0.015 | [20] -0.078

ASAP1 isoform 2 (UniProt Q9ULH1)
inactive: [1] 0.134 | [2] 0.031 | [3] 0.015 | [4] -0.034 | [5] 0.065 | [6] -0.097 | [7] -0.014 | [8] 0.081 | [9] -0.046 | [10] -0.09 | [11] -0.098 | [12] 0.057 | [13] -0.118 | [14] -0.054 | [15] -0.096 | [16] -0.06 | [17] 0.029 | [18] 0.015 | [19] -0.004 | [20] 0.041

ARPC4 isoform 3 (UniProt P59998)
inactive: [1] 0.011 | [2] 0.012 | [3] 0.043 | [4] -0.115 | [5] -0.009 | [6] 0.019 | [7] 0.014 | [8] 0.042 | [9] -0.005 | [10] -0.049 | [11] 0.001 | [12] -0.028 | [13] 0.008 | [14] -0.043 | [15] -0.01 | [16] 0.08 | [17] -0.024 | [18] -0.078 | [19] -0.011 | [20] 0.034

ATP6AP2 (UniProt O75787)
inactive: [1] 0.105 | [2] 0.004 | [3] -0.004 | [4] 0.038 | [5] -0.067 | [6] 0.022 | [7] -0.022 | [8] -0.013 | [9] -0.027 | [10] 0.095 | [11] 0.049 | [12] -0.05 | [13] 0.027 | [14] 0.004 | [15] -0.034 | [16] -0.142 | [17] 0.031 | [18] 0.088 | [19] -0.024 | [20] 0.05

ASRGL1 (UniProt Q7L266)
inactive: [1] 0.024 | [2] -0.021 | [3] 0.042 | [4] 0.009 | [5] 0.014 | [6] -0.011 | [7] 0 | [8] 0.004 | [9] -0.003 | [10] 0.018 | [11] 0.007 | [12] 0.02 | [13] 0.021 | [14] -0.015 | [15] -0.05 | [16] -0.036 | [17] -0.042 | [18] 0.02 | [19] -0.011 | [20] 0.084

ATP2C1 isoform 7 (UniProt P98194)
inactive: [1] -0.01 | [2] 0.042 | [3] 0.127 | [4] 0.033 | [5] 0.015 | [6] 0.043 | [7] 0 | [8] -0.008 | [9] 0.049 | [10] 0.034 | [11] 0.068 | [12] -0.009 | [13] 0.002 | [14] -0.051 | [15] -0.094 | [16] -0.093 | [17] -0.026 | [18] -0.013 | [19] 0.003 | [20] -0.052

ARMCX3 (UniProt Q9UH62)
inactive: [1] 0.055 | [2] 0.027 | [3] -0.006 | [4] 0.04 | [5] -0.031 | [6] -0.074 | [7] -0.061 | [8] 0.021 | [9] -0.069 | [10] -0.299 | [11] -0.145 | [12] 0.013 | [13] 0.044 | [14] 0.081 | [15] -0.058 | [16] -0.001 | [17] 0.092 | [18] 0.208 | [19] 0.011 | [20] 0.052

ARL13B (UniProt Q3SXY8)
inactive: [1] -0.033 | [2] -0.045 | [3] -0.082 | [4] -0.058 | [5] -0.069 | [6] 0.026 | [7] 0.004 | [8] 0.093 | [9] -0.156 | [10] 0.078 | [11] 0.031 | [12] 0.033 | [13] 0.033 | [14] 0.011 | [15] 0.057 | [16] 0.078 | [17] 0.06 | [18] 0.04 | [19] 0.075 | [20] 0.07

ATP5F1D (UniProt P30049)
inactive: [1] -0.058 | [2] 0.033 | [3] 0.084 | [4] -0.118 | [5] 0.005 | [6] 0.043 | [7] -0.008 | [8] 0.024 | [9] 0 | [10] -0.01 | [11] 0.03 | [12] -0.067 | [13] -0.084 | [14] -0.115 | [15] 0 | [16] -0.024 | [17] -0.042 | [18] -0.011 | [19] 0.016 | [20] 0.078

ATL3 (UniProt Q6DD88)
inactive: [1] 0.024 | [2] 0.077 | [3] 0.074 | [4] -0.019 | [5] -0.013 | [6] 0.013 | [7] 0.012 | [8] 0.012 | [9] -0.006 | [10] 0.035 | [11] 0.041 | [12] 0.008 | [13] -0.007 | [14] -0.058 | [15] -0.056 | [16] -0.007 | [17] -0.008 | [18] 0.003 | [19] 0.001 | [20] 0.064

ATM (UniProt Q13315)
inactive: [1] 0.013 | [2] 0.033 | [3] 0.05 | [4] 0.052 | [5] 0.066 | [6] 0.1 | [7] 0.006 | [8] -0.03 | [9] -0.015 | [10] 0.012 | [11] 0.039 | [12] 0.034 | [13] 0.119 | [14] -0.036 | [15] -0.08 | [16] -0.048 | [17] 0.028 | [18] 0.056 | [19] -0.042 | [20] 0.105

ARPC1A (UniProt Q92747)
inactive: [1] -0.027 | [2] 0.02 | [3] -0.015 | [4] -0.018 | [5] 0.006 | [6] 0.049 | [7] 0.019 | [8] -0.008 | [9] -0.013 | [10] -0.005 | [11] 0.067 | [12] -0.02 | [13] 0.074 | [14] -0.028 | [15] 0.031 | [16] 0.156 | [17] 0.026 | [18] 0.004 | [19] -0.065 | [20] 0.096

ATPAF2 (UniProt Q8N5M1)
inactive: [1] 0.026 | [2] -0.009 | [3] 0.087 | [4] -0.08 | [5] 0.015 | [6] -0.024 | [7] -0.066 | [8] 0.04 | [9] 0.02 | [10] -0.017 | [11] -0.005 | [12] -0.011 | [13] 0.029 | [14] -0.053 | [15] 0.036 | [16] 0.005 | [17] -0.062 | [18] -0.029 | [19] 0 | [20] -0.059

ARSB (UniProt P15848)
inactive: [1] 0.021 | [2] 0 | [3] 0.024 | [4] -0.006 | [5] 0.03 | [6] 0.02 | [7] 0.006 | [8] -0.035 | [9] 0.01 | [10] -0.001 | [11] 0.011 | [12] 0.044 | [13] -0.11 | [14] -0.009 | [15] 0.015 | [16] 0.002 | [17] -0.013 | [18] -0.094 | [19] 0.011 | [20] 0.027

Two records drawn at random from those above:
ATPAF2 (UniProt Q8N5M1)
inactive: [1] 0.026 | [2] -0.009 | [3] 0.087 | [4] -0.08 | [5] 0.015 | [6] -0.024 | [7] -0.066 | [8] 0.04 | [9] 0.02 | [10] -0.017 | [11] -0.005 | [12] -0.011 | [13] 0.029 | [14] -0.053 | [15] 0.036 | [16] 0.005 | [17] -0.062 | [18] -0.029 | [19] 0 | [20] -0.059

ARPC1A (UniProt Q92747)
inactive: [1] -0.027 | [2] 0.02 | [3] -0.015 | [4] -0.018 | [5] 0.006 | [6] 0.049 | [7] 0.019 | [8] -0.008 | [9] -0.013 | [10] -0.005 | [11] 0.067 | [12] -0.02 | [13] 0.074 | [14] -0.028 | [15] 0.031 | [16] 0.156 | [17] 0.026 | [18] 0.004 | [19] -0.065 | [20] 0.096

Following part:

ATG2B (UniProt Q96BY7)
inactive: [1] -0.003 | [2] 0 | [3] 0.006 | [4] 0.038 | [5] 0.017 | [6] 0.005 | [7] -0.021 | [8] -0.022 | [9] 0.012 | [10] 0.02 | [11] 0.03 | [12] -0.013 | [13] -0.04 | [14] -0.03 | [15] -0.008 | [16] -0.038 | [17] 0.023 | [18] -0.005 | [19] 0.027 | [20] -0.017

ATP1A3 isoform 3 (UniProt P13637)
inactive: [1] 0.062 | [2] -0.037 | [3] -0.045 | [4] -0.036 | [5] -0.047 | [6] 0.015 | [7] -0.011 | [8] -0.024 | [9] 0.028 | [10] 0.081 | [11] 0.023 | [12] -0.008 | [13] 0.011 | [14] -0.013 | [15] -0.011 | [16] 0.185 | [17] -0.03 | [18] -0.018 | [19] -0.027 | [20] -0.025
